Laboratory results taken from PMC11841255.
No constants are given. Whether binding was seen depends on the method and setting. Binding seen in cells or lysates may run through a third protein. A yes stands for co-enrichment or nearness to the bait. Other partners may have been found. Tags and fused reporters may be left off the sequences shown.

The chains behind the UniProt entries cited, without tags or fusion partners.
UniProt Q13263: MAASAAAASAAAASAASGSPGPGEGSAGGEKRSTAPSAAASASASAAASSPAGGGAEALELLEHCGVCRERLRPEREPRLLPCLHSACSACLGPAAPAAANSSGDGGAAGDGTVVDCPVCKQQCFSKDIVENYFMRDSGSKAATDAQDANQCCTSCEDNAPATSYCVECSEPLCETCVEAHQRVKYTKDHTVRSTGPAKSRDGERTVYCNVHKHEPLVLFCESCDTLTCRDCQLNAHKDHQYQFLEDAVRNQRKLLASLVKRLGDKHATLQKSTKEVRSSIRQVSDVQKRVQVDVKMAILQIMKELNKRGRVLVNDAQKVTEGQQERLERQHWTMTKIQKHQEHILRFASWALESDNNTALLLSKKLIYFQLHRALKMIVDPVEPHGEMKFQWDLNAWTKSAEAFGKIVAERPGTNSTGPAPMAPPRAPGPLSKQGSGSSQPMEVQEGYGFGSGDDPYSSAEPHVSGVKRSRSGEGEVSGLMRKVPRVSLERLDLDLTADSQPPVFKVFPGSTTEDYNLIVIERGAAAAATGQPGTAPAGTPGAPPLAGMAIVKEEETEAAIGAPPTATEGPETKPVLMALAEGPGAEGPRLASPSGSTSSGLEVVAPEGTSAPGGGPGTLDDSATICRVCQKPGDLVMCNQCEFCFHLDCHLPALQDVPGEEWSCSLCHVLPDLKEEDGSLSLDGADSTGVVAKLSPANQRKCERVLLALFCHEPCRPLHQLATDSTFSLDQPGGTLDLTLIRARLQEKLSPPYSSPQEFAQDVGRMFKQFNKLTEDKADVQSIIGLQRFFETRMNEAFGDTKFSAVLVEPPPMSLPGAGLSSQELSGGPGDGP

Target: T1, GFP-CDCA3 (UniProt Q99618)
T1 sequence: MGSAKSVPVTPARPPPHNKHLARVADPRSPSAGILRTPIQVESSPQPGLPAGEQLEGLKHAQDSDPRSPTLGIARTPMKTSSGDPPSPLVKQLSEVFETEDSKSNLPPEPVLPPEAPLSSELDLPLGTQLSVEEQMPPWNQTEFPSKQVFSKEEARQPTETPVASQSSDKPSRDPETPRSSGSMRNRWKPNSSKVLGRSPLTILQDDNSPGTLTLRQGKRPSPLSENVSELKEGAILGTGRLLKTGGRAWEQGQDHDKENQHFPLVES
Test: affinity purification with mass spectrometry; GFP-CDCA3 plasmid transfected into 293T cells, Co-IP, then LC-MS of the precipitate (trypsin digest, ThermoFisher Fusion, PEAKS Online 11)

binding: binds
Substance: Tripartite Motif Containing 28 (TRIM28), endogenous (from UniProt Q13263 1-835)
